{"source": "patent US7414107B2", "about": "(priority 1998, dated 2008)", "settings_in_all_cases": "whole synthesis, scale of the general procedure 250 mg resin (0.29 mmol/g) or 500 mg resin (0.22-0.31 mmol/g)", "key": {"[1]": {"assay": "general procedure: Fmoc solid-phase peptide synthesis; NovaSyn TG; preformed HObt esters generated by means of DIC"}, "[2]": {"assay": "general procedure: Fmoc solid-phase peptide synthesis; TentaGel S-NH2; preformed HObt esters generated by means of DIC"}, "[3]": {"assay": "general procedure: Fmoc solid-phase peptide synthesis; TentaGel S-PHB-Lys(Boc)Fmoc; preformed HObt esters generated by means of DIC"}, "[4]": {"assay": "general procedure: Fmoc solid-phase peptide synthesis; TentaGel S-RAM; preformed HObt esters generated by means of DIC"}, "[5]": {"assay": "general procedure: Fmoc solid-phase peptide synthesis; NovaSyn TG resin; preformed HObt esters generated by means of DIC"}, "[6]": {"assay": "general procedure: Fmoc solid-phase peptide synthesis; TentaGel S-RAM-Lys(Boc)Fmoc; preformed HObt esters generated by means of DIC"}}, "note": "For part of these data: HELM strings list residues between dots; [ac] is acetyl, [am] amide, other brackets name non-standard units. Bridges are numbered along the chain shown (N, C = ends)."}
{"substance": "H-Tyr-Gly-Gly-Phe-Leu-Glu6-OH", "values": [{"measurement": "crude HPLC purity", "setting": "[1]", "value": "better than 90%"}, {"measurement": "crude yield", "setting": "[1]", "value": 76, "unit": "%"}]}
{"substance": "PEPTIDE1{K.K.K.K.K.K.S.V.S.E.I.Q.L.M.H.N.L.G.K.H.L.N.S.M.E.R.V.E.W.L.R.K.K.L.Q.D.V.H.N.F}$$$$V2.0", "values": [{"measurement": "final HPLC purity", "setting": "[2]", "value": "better than 90%"}, {"measurement": "isolated yield", "setting": "[2]", "value": 6.2, "unit": "%"}]}
{"substance": "H-Trp-Ala-Gly-Gly-Asp-Ala-Ser-Gly-Glu-Glu6-OH", "values": [{"measurement": "crude HPLC purity", "setting": "[1]", "value": "better than 98%"}, {"measurement": "crude yield", "setting": "[1]", "value": 80, "unit": "%"}]}
{"substance": "PEPTIDE1{Y.G.G.F.L.K.K.E.E.E.K}$$$$V2.0", "values": [{"measurement": "final HPLC purity", "setting": "[3]", "value": "better than 90%"}, {"measurement": "isolated yield", "setting": "[3]", "value": 60, "unit": "%"}]}
{"substance": "PEPTIDE1{H.A.E.G.T.F.T.S.D.V.S.S.Y.L.E.G.Q.A.A.K.E.F.I.A.W.L.V.K.G.R.K.K.K.K.K.K}$$$$V2.0", "values": [{"measurement": "final HPLC purity", "setting": "[3]", "value": "better than 98%"}, {"measurement": "isolated yield", "setting": "[3]", "value": 11, "unit": "%"}]}
{"substance": "PEPTIDE1{S.V.S.E.I.Q.L.M.H.N.L.G.K.H.L.N.S.M.E.R.V.E.W.L.R.K.K.L.Q.D.V.H.N.F}$$$$V2.0", "values": [{"measurement": "final HPLC purity", "setting": "[2]", "value": "better than 98%"}, {"measurement": "isolated yield", "setting": "[2]", "value": 6.1, "unit": "%"}]}
{"substance": "PEPTIDE1{Y.G.G.F.L.[Dbu].[Dbu].[Dbu].[Dbu].[Dbu].[Dbu]}$$$$V2.0", "values": [{"measurement": "final HPLC purity", "setting": "[2]", "value": "better than 90%"}, {"measurement": "isolated yield", "setting": "[2]", "value": 22, "unit": "%"}]}
{"substance": "H-(Lys)6-Gln-His-Trp-Ser-Tyr-Gly-Leu-Arg-Pro-Gly-NH2", "values": [{"measurement": "crude HPLC purity", "setting": "[4]", "value": "better than 95%"}, {"measurement": "crude yield", "setting": "[4]", "value": 20, "unit": "%"}]}
{"substance": "H-GGTYSCHFGPLTWVCKPQGGKKKKKK-OH (disulfide 6-15; SMILES CC(C)C[C@@H]1NC(=O)[C@@H]2CCCN2C(=O)CNC(=O)[C@H](Cc2ccccc2)NC(=O)[C@H](Cc2c[nH]cn2)NC(=O)[C@@H](NC(=O)[C@H](CO)NC(=O)[C@H](Cc2ccc(O)cc2)NC(=O)[C@@H](NC(=O)CNC(=O)CN)[C@@H](C)O)CSSC[C@@H](C(=O)N[C@@H](CCCCN)C(=O)N2CCC[C@H]2C(=O)N[C@@H](CCC(N)=O)C(=O)NCC(=O)NCC(=O)N[C@@H](CCCCN)C(=O)N[C@@H](CCCCN)C(=O)N[C@@H](CCCCN)C(=O)N[C@@H](CCCCN)C(=O)N[C@@H](CCCCN)C(=O)N[C@@H](CCCCN)C(=O)O)NC(=O)[C@H](C(C)C)NC(=O)[C@H](Cc2c[nH]c3ccccc23)NC(=O)[C@H]([C@@H](C)O)NC1=O)", "values": [{"measurement": "final HPLC purity", "setting": "[3]", "value": "better than 98%"}, {"measurement": "isolated yield", "setting": "[3]", "value": 27, "unit": "%"}]}
{"substance": "H-WAGGDASGEKEKEKE-OH", "values": [{"measurement": "crude HPLC purity", "setting": "[1]", "value": "better than 98%"}, {"measurement": "crude yield", "setting": "[1]", "value": 91, "unit": "%"}]}
{"substance": "PTH-(Lys-Glu)3", "values": [{"measurement": "final HPLC purity", "setting": "[5]; HPLC", "value": "better than 98%"}, {"measurement": "isolated yield", "setting": "[5]", "value": 28, "unit": "%"}]}
{"substance": "PEPTIDE1{Y.G.G.F.L.[Orn].[Orn].[Orn].[Orn].[Orn].[Orn]}$$$$V2.0", "values": [{"measurement": "final HPLC purity", "setting": "[2]", "value": "better than 90%"}, {"measurement": "isolated yield", "setting": "[2]", "value": 20, "unit": "%"}]}
{"substance": "H-Aib-His-2-D-Nal-D-Phe-Lys-NH2", "values": [{"measurement": "crude HPLC purity", "setting": "[4]", "value": "better than 95%"}, {"measurement": "crude yield", "setting": "[4]", "value": 21, "unit": "%"}]}
{"substance": "H-(Lys)6-Aib-His-2-D-Nal-D-Phe-Lys-NH2", "values": [{"measurement": "crude HPLC purity", "setting": "[4]", "value": "better than 95%"}, {"measurement": "crude yield", "setting": "[4]", "value": 19, "unit": "%"}]}
{"substance": "PEPTIDE1{Y.G.G.F.L.K.E.E.E.E.K}$$$$V2.0", "values": [{"measurement": "final HPLC purity", "setting": "[3]", "value": "better than 98%"}, {"measurement": "isolated yield", "setting": "[3]", "value": 65, "unit": "%"}]}
{"substance": "pGlu-His-Trp-Ser-Tyr-Gly-Leu-Arg-Pro-Gly-(Lys-Glu)3 OH", "values": [{"measurement": "final HPLC purity", "setting": "[1]", "value": "better than 98%"}, {"measurement": "isolated yield", "setting": "[1]", "value": 43, "unit": "%"}]}
{"substance": "H-KKKKKKRPKPQQFFGLM-NH2", "values": [{"measurement": "final HPLC purity", "setting": "[4]", "value": "better than 98%"}, {"measurement": "isolated yield", "setting": "[4]", "value": 10.3, "unit": "%"}]}
{"substance": "H-RPKPQQFFGLMKKKKKK-NH2", "values": [{"measurement": "final HPLC purity", "setting": "[6]", "value": "better than 98%"}, {"measurement": "isolated yield", "setting": "[6]", "value": 17.2, "unit": "%"}]}
{"substance": "PEPTIDE1{Y.G.G.F.L.[Dpr].[Dpr].[Dpr].[Dpr].[Dpr].[Dpr]}$$$$V2.0", "values": [{"measurement": "final HPLC purity", "setting": "[2]", "value": "better than 98%"}, {"measurement": "isolated yield", "setting": "[2]", "value": 22, "unit": "%"}]}
{"substance": "H-KKKKKKYGGFL-OH", "values": [{"measurement": "crude HPLC purity", "setting": "[1]", "value": "better than 98%"}, {"measurement": "crude yield", "setting": "[1]", "value": 89, "unit": "%"}]}
{"substance": "PEPTIDE1{K.K.K.K.K.K.Y.G.G.F.L.K.K.K.K.K.K}$$$$V2.0", "values": [{"measurement": "crude HPLC purity", "setting": "[1]", "value": "better than 98%"}, {"measurement": "crude yield", "setting": "[1]", "value": 90, "unit": "%"}]}
{"substance": "Glu-His-Trp-Ser-Tyr-Gly-Leu-Arg-Pro-Gly-Lys6 OH", "values": [{"measurement": "final HPLC purity", "setting": "[1]", "value": "better than 98%"}, {"measurement": "isolated yield", "setting": "[1]", "value": 37, "unit": "%"}]}
{"substance": "H-Tyr-Gly-Gly-Phe-Leu-Lys6-OH", "values": [{"measurement": "crude HPLC purity", "setting": "[1]", "value": "better than 98%"}, {"measurement": "crude yield", "setting": "[1]", "value": 84, "unit": "%"}]}
{"substance": "PEPTIDE1{W.A.G.G.D.A.S.G.E}$$$$V2.0", "values": [{"measurement": "crude HPLC purity", "setting": "[1]", "value": "better than 98%"}, {"measurement": "crude yield", "setting": "[1]", "value": 78, "unit": "%"}]}
{"substance": "pGlu-His-Trp-Ser-Tyr-Gly-Leu-Arg-Pro-GIy-NH2", "values": [{"measurement": "crude HPLC purity", "setting": "[4]", "value": "better than 95%"}, {"measurement": "crude yield", "setting": "[4]", "value": 28, "unit": "%"}]}
{"substance": "H-Arg-Pro-Lys-Pro-Gln-Gln-Phe-Phe-Gly-Leu-Met-Lys6-OH", "values": [{"measurement": "crude HPLC purity", "setting": "[1]", "value": "better than 98%"}, {"measurement": "crude yield", "setting": "[1]", "value": 80, "unit": "%"}]}
{"substance": "H-Aib-His-2-D-Nal-D-Phe-Lys-(Lys)6(-NH2", "values": [{"measurement": "final HPLC purity", "setting": "[6]", "value": "better than 90%"}, {"measurement": "isolated yield", "setting": "[6]", "value": 35, "unit": "%"}]}
{"substance": "PEPTIDE1{S.V.S.E.I.Q.L.M.H.N.L.G.K.H.L.N.S.M.E.R.V.E.W.L.R.K.K.L.Q.D.V.H.N.F.K.K.K.K.K.K}$$$$V2.0", "values": [{"measurement": "final HPLC purity", "setting": "[3]", "value": "better than 98%"}, {"measurement": "isolated yield", "setting": "[3]", "value": 5.3, "unit": "%"}]}
{"substance": "PEPTIDE1{H.A.E.G.T.F.T.S.D.V.S.S.Y.L.E.G.Q.A.A.K.E.F.I.A.W.L.V.K.G.R}$$$$V2.0", "values": [{"measurement": "final HPLC purity", "setting": "[2]", "value": "better than 98%"}, {"measurement": "isolated yield", "setting": "[2]", "value": 8.7, "unit": "%"}]}
{"substance": "PEPTIDE1{Y.G.G.F.L.K.K.K.K.K.K.K.K.K.K}$$$$V2.0", "values": [{"measurement": "final HPLC purity", "setting": "[3]", "value": "better than 98%"}, {"measurement": "isolated yield", "setting": "[3]", "value": 7.1, "unit": "%"}]}
{"substance": "H-GGTYSCHFGPLTWVCKPQGG-OH (disulfide 6-15; SMILES CC(C)C[C@@H]1NC(=O)[C@@H]2CCCN2C(=O)CNC(=O)[C@H](Cc2ccccc2)NC(=O)[C@H](Cc2c[nH]cn2)NC(=O)[C@@H](NC(=O)[C@H](CO)NC(=O)[C@H](Cc2ccc(O)cc2)NC(=O)[C@@H](NC(=O)CNC(=O)CN)[C@@H](C)O)CSSC[C@@H](C(=O)N[C@@H](CCCCN)C(=O)N2CCC[C@H]2C(=O)N[C@@H](CCC(N)=O)C(=O)NCC(=O)NCC(=O)O)NC(=O)[C@H](C(C)C)NC(=O)[C@H](Cc2c[nH]c3ccccc23)NC(=O)[C@H]([C@@H](C)O)NC1=O)", "values": [{"measurement": "final HPLC purity", "setting": "[2]", "value": "better than 98%"}, {"measurement": "isolated yield", "setting": "[2]", "value": 22, "unit": "%"}]}
{"substance": "PEPTIDE1{K.K.K.K.K.K.G.G.T.Y.S.C.H.F.G.P.L.T.W.V.C.K.P.Q.G.G}$PEPTIDE1,PEPTIDE1,12:R3-21:R3$$$V2.0", "values": [{"measurement": "final HPLC purity", "setting": "[2]", "value": "better than 98%"}, {"measurement": "isolated yield", "setting": "[2]", "value": 12, "unit": "%"}]}
{"substance": "PEPTIDE1{R.P.K.P.Q.Q.F.F.G.L.M.[am]}$$$$V2.0", "values": [{"measurement": "final HPLC purity", "setting": "[4]", "value": "better than 98%"}, {"measurement": "isolated yield", "setting": "[4]", "value": 12.3, "unit": "%"}]}
